Test results from PMC10323252.
No constants are given. Whether binding was seen depends on the method and setting. Some binding calls cover weakened binding; strength is not graded here. For some assays here: Sequences can lack the tags named with a protein. Blank lines part the entries; values can stand above or below the molecule they belong to.

Chains of the proteins cited; added tags and fusions are not shown.
UniProt P62491: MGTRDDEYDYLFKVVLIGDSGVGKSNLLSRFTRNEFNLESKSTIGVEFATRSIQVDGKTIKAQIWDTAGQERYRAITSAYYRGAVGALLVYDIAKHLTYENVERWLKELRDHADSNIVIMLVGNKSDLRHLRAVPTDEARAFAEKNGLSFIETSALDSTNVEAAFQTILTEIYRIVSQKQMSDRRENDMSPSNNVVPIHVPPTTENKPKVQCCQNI
UniProt O60493: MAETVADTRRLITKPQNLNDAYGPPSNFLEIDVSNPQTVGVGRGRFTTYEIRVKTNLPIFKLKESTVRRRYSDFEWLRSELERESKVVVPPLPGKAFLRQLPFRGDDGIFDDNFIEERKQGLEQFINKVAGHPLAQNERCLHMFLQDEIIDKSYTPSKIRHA
UniProt Q13596: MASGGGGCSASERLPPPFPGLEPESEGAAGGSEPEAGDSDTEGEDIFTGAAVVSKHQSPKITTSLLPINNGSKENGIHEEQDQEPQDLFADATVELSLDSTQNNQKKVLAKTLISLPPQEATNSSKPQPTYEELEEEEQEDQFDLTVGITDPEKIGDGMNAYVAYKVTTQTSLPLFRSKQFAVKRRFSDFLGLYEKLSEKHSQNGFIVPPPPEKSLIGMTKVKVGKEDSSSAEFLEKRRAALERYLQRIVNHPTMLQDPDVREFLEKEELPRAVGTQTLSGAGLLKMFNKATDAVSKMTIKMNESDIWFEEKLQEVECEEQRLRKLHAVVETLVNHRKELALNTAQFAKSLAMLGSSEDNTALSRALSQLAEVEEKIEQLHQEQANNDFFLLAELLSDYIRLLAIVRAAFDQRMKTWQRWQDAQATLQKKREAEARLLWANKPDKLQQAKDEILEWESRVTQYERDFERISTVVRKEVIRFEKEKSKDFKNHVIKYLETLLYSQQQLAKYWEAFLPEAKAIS
UniProt Q9UBF8: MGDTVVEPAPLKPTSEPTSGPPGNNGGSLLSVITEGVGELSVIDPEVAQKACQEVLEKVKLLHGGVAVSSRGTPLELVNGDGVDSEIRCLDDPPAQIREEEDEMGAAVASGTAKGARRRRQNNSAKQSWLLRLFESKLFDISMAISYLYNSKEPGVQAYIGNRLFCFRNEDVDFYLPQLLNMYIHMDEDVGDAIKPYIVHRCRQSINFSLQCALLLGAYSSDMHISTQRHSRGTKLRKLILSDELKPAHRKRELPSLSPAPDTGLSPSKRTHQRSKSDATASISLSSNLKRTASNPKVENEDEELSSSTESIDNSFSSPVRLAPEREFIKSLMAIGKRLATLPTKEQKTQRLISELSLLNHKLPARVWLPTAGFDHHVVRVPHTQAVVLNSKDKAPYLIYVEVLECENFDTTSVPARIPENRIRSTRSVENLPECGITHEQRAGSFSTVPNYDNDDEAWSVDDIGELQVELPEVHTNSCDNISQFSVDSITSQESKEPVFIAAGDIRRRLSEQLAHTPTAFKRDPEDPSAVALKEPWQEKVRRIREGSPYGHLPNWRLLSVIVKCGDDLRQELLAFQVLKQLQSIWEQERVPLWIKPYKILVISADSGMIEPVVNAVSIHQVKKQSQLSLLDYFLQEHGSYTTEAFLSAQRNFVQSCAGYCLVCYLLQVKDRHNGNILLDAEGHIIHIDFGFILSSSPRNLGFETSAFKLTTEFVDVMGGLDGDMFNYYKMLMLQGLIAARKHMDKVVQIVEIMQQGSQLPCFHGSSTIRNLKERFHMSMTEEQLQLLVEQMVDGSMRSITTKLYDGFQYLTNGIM

Columns and labels:
GFP–FKBP–Rab11a [1] = target: GFP–FKBP–Rab11a (UniProt P62491); assay: knock-sideways relocalisation; A2780 cells expressing pMito-iRFP670-FRB and GFP-FKBP-Rab; rapamycin 200 nM for 4 h; fixed and stained for the endogenous candidate protein; mitochondrial overlap quantified
GFP–FKBP–Rab25 [2] = target: T1, GFP–FKBP–Rab25 (UniProt P57735); assay: as above
T1 sequence: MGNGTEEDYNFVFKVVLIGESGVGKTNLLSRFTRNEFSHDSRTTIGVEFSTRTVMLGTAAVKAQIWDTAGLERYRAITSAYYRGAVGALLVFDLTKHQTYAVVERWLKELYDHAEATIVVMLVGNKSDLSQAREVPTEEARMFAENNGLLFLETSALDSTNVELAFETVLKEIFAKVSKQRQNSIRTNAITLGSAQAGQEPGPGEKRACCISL

GFP–FKBP–Rab11a [3] = target: GFP–FKBP–Rab11a (UniProt P62491); assay: knock-sideways relocalisation; live A2780 cells co-expressing mitochondrially targeted FRB, GFP-FKBP-Rab and mCherry-Rab11FIP5; rapamycin 200 nM; spinning-disk confocal imaging every 5 min for 1 h; Pearson's correlation with mitochondria
GFP–FKBP–Rab25 [4] = target: T1, GFP–FKBP–Rab25; assay: as above

binding (GFP–FKBP–Rab25 [2]): binds
Molecule: SNX3 (from UniProt O60493 1-162)

binding (GFP–FKBP–Rab11a [1]): binds
Molecule: SNX1 (from UniProt Q13596 1-522)

binding (GFP–FKBP–Rab11a [3]): binds
binding (GFP–FKBP–Rab25 [4]): binds
B1: mCherry–Rab11FIP5 (protein, UniProt Q9BXF6 1-653)
chain: MALVRGAEPAAGPSRWLPTHVQVTVLRARGLRGKSSGAGSTSDAYTVIQVGREKYSTSVVEKTHGCPEWREECSFELPPGALDGLLRAQEADAGPAPWAASSAAACELVLTTMHRSLIGVDKFLGQATVALDEVFGAGRAQHTQWYKLHSKPGKKEKERGEIEVTIQFTRNNLSASMFDLSMKDKPRSPFSKIRDKMKGKKKYDLESASAILPSSAIEDPDLGSLGKMGKAKGFFLRNKLRKSSLTQSNTSLGSDSTLSSASGSLAYQGPGAELLTRSPSRSSWLSTEGGRDSAQSPKLFTHKRTYSDEANQMRVAPPRALLDLQGHLDAASRSSLCVNGSHIYNEEPQGPVRHRSSISGSLPSSGSLQAVSSRFSEEGPRSTDDTWPRGSRSNSSSEAVLGQEELSAQAKVLAPGASHPGEEEGARLPEGKPVQVATPIVASSEAVAEKEGARKEERKPRMGLFHHHHQGLSRSELGRRSSLGEKGGPILGASPHHSSSGEEKAKSSWFGLREAKDPTQKPSPHPVKPLSAAPVEGSPDRKQSRSSLSIALSSGLEKLKTVTSGSIQPVTQAPQAGQMVDTKRLKDSAVLDQSAKYYHLTHDELISLLLQRERELSQRDEHVQELESYIDRLLVRIMETSPTLLQIPPGPPK

binding (GFP–FKBP–Rab11a [1]): binds
binding (GFP–FKBP–Rab25 [2]): binds
B4: SH3BP5L (protein, UniProt Q7L8J4 1-393)
chain: MAELRQVPGGRETPQGELRPEVVEDEVPRSPVAEEPGGGGSSSSEAKLSPREEEELDPRIQEELEHLNQASEEINQVELQLDEARTTYRRILQESARKLNTQGSHLGSCIEKARPYYEARRLAKEAQQETQKAALRYERAVSMHNAAREMVFVAEQGVMADKNRLDPTWQEMLNHATCKVNEAEEERLRGEREHQRVTRLCQQAEARVQALQKTLRRAIGKSRPYFELKAQFSQILEEHKAKVTELEQQVAQAKTRYSVALRNLEQISEQIHARRRGGLPPHPLGPRRSSPVGAEAGPEDMEDGDSGIEGAEGAGLEEGSSLGPGPAPDTDTLSLLSLRTVASDLQKCDSVEHLRGLSDHVSLDGQELGTRSGGRRGSDGGARGGRHQRSVSL

The remaining lines, values behind:

Molecule: PI4KB (from UniProt Q9UBF8 1-816)
binding (GFP–FKBP–Rab11a [1]): binds

B2: Rab11FIP5 (protein, UniProt Q9BXF6 1-653)
chain: B1 chain
binding (GFP–FKBP–Rab11a [1]): binds
binding (GFP–FKBP–Rab25 [2]): binds

B3: CRACR2A (protein, UniProt Q9BSW2 1-731)
chain: MAAPDGRVVSRPQRLGQGSGQGPKGSGACLHPLDSLEQKETQEQTSGQLVMLRKAQEFFQTCDAEGKGFIARKDMQRLHKELPLSLEELEDVFDALDADGNGYLTPQEFTTGFSHFFFSQNNPSQEDAGEQVAQRHEEKVYLSRGDEDLGDMGEDEEAQFRMLMDRLGAQKVLEDESDVKQLWLQLKKEEPHLLSNFEDFLTRIISQLQEAHEEKNELECALKRKIAAYDEEIQHLYEEMEQQIKSEKEQFLLKDTERFQARSQELEQKLLCKEQELEQLTQKQKRLEGQCTALHHDKHETKAENTKLKLTNQELARELERTSWELQDAQQQLESLQQEACKLHQEKEMEVYRVTESLQREKAGLLKQLDFLRERNKHLRDERDICFQKNKAAKANTAASRASWKKRSGSVIGKYVDSRGILRSQSEEEEEVFGIPRRSSLGLSGYPLTEEEPGTGEPGPGGPYPRPLRRIISVEEDPLPQLLDGGFEQPLSKCSEEEEVSDQGVQGQIPEAPPLKLTPTSPRGQPVGKEALCKEESSPSAPDRLFKIVFVGNSAVGKTSFLRRFCEDRFSPGMAATVGIDYRVKTLNVDNSQVALQLWDTAGQERYRCITQQFFRKADGVIVMYDLTDKQSFLSVRRWLSSVEEAVGDRVPVLLLGNKLDNEKEREVPRGLGEQLATENNLIFYECSAYSGHNTKESLLHLARFLKEQEDTVREDTIQVGHPAKKKSCCG
binding (GFP–FKBP–Rab11a [1]): binds
binding (GFP–FKBP–Rab25 [2]): binds
